No constants are given. Whether binding was seen depends on the method and setting. In cells and extracts the contact can be indirect. Some results given as binding are weak or reduced against the parent protein; the word gives no strength.

Chains of the proteins cited; added tags and fusions are not shown. Lines headed by an entry give the natural chain unless they say otherwise; changes in a name come on top. Residues count along the entry.
UniProt Q9HC29: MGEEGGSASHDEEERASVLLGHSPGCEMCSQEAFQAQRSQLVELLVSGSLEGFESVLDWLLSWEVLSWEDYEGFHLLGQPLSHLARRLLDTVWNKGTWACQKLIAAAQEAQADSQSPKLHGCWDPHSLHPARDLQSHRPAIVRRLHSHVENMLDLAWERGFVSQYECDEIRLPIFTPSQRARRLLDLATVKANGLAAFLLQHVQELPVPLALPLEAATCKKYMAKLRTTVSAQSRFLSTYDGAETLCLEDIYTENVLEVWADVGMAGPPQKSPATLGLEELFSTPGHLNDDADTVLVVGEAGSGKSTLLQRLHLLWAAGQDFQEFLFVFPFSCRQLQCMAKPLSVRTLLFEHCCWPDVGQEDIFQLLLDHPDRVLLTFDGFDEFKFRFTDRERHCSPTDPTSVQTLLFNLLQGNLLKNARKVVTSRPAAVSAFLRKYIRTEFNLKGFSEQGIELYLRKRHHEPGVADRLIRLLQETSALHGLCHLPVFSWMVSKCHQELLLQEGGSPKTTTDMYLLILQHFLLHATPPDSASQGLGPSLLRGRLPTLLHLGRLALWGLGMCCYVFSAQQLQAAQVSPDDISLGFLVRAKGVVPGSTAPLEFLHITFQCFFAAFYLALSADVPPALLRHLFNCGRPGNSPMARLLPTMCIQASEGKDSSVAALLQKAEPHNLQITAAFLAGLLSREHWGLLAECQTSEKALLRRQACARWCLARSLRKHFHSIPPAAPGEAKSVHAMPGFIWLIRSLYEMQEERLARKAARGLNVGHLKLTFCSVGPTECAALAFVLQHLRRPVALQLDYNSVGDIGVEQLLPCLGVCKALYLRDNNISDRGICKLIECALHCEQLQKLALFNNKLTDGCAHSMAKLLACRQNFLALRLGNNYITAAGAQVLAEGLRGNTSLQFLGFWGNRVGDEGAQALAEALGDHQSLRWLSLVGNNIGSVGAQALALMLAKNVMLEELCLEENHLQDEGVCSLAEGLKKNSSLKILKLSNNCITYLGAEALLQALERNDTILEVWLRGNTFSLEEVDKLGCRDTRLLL
NOD2 C-terminal LRR domain (amino acids 619-1040): residues 619-1040 of Q9HC29
UniProt P48678, residues 1-647: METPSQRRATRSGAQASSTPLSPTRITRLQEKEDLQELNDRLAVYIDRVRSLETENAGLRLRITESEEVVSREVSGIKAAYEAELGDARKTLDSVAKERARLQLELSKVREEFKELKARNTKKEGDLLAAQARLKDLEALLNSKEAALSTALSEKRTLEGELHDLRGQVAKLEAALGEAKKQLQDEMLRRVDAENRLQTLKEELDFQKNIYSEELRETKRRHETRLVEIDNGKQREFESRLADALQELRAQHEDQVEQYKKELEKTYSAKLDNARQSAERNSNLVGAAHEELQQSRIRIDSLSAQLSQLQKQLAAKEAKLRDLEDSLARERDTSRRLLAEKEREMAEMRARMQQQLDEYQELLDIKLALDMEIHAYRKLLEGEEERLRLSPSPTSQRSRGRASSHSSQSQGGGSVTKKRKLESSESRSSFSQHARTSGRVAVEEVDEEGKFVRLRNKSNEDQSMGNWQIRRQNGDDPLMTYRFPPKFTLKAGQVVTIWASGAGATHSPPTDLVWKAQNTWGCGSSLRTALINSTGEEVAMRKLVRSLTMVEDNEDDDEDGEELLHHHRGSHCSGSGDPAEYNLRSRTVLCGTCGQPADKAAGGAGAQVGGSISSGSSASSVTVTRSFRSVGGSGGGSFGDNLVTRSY
UniProt P02545, residues 1-646: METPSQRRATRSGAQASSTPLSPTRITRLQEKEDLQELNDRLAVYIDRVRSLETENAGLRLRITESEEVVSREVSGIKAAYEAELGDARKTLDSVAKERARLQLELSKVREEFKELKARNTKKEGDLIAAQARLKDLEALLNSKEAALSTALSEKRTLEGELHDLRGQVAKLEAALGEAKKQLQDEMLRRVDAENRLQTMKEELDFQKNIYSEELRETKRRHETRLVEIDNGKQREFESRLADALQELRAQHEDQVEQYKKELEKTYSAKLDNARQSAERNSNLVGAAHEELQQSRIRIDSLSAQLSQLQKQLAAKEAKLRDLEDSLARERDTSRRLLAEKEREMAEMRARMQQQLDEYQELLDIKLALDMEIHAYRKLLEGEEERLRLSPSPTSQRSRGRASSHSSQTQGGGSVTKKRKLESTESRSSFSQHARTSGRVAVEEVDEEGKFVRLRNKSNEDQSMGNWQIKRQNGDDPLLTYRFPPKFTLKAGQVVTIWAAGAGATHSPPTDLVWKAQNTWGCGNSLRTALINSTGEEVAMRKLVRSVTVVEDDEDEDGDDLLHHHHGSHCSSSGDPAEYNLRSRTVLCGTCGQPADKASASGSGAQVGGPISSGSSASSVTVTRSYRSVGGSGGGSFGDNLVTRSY

From PMC7791875 come the findings set out here.

One experiment concerns the target GST-NOD2 (UniProt Q9HC29). Nature of the experiment: pull-down; GST pull-down with purified GST-NOD2; source of lamin A/C not told in the text shown.
Experiment [1] addresses NOD2 C-terminal LRR domain (amino acids 619-1040) (UniProt Q9HC29). The experiment is described as above.
Experiment [2] concerns the target lamin A/C, endogenous in primary hepatocytes (mouse (endogenous in primary mouse hepatocytes)) (UniProt P48678). Nature of the experiment: co-IP; bidirectional co-IP of endogenous proteins in primary hepatocytes.

“lamin A/C (in the GST pull-down assay) (from UniProt P02545 1-646)”: the binding entry (with GST-NOD2; in experiment [1]) was “binds” throughout.

B1: NOD2 (nucleotide-binding oligomerization domain 2), endogenous in primary hepatocytes (protein, UniProt Q8K3Z0 1-1020)
chain: MRSSCCDMCSQEEFQAQRSQLVALLISGSLEGFESILDWLLSWDVLSREDYEGLSLPGQPLSHSARRLLDTVWNKGVWGCQKLLEAVQEAQANSHTFELYGSWDTHSLHPTRDLQSHRPAIVRRLYNHVEAMLELAREGGFLSQYECEEIRLPIFTSSQRARRLLDLAAVKANGLAAFLLQHVRELPAPLPLPYEAAECQKFISKLRTMVLTQSRFLSTYDGSENLCLEDIYTENILELQTEVGTAGALQKSPAILGLEDLFDTHGHLNRDADTILVVGEAGSGKSTLLQRLHLLWATGRSFQEFLFIFPFSCRQLQCVAKPLSLRTLLFEHCCWPDVAQDDVFQFLLDHPDRVLLTFDGLDEFKFRFTDRERHCSPIDPTSVQTLLFNLLQGNLLKNACKVLTSRPDAVSALLRKFVRTELQLKGFSEEGIQLYLRKHHREPGVADRLIQLIQATSALHGLCHLPVFSWMVSRCHRELLLQNRGFPTTSTDMYLLILQHFLLHASPPDSSPLGLGPGLLQSRLSTLLHLGHLALRGLAMSCYVFSAQQLQAAQVDSDDISLGFLVRAQSSVPGSKAPLEFLHITFQCFFAAFYLAVSADTSVASLKHLFSCGRLGSSLLGRLLPNLCIQGSRVKKGSEAALLQKAEPHNLQITAAFLAGLLSQQHRDLLAACQVSERVLLQRQARARSCLAHSLREHFHSIPPAVPGETKSMHAMPGFIWLIRSLYEMQEEQLAQEAVRRLDIGHLKLTFCRVGPAECAALAFVLQHLQRPVALQLDYNSVGDVGVEQLRPCLGVCTALYLRDNNISDRGARTLVECALRCEQLQKLALFNNKLTDACACSMAKLLAHKQNFLSLRVGNNHITAAGAEVLAQGLKSNTSLKFLGFWGNSVGDKGTQALAEVVADHQNLKWLSLVGNNIGSMGAEALALMLEKNKSLEELCLEENHICDEGVYSLAEGLKRNSTLKFLKLSNNGITYRGAEALLQALSRNSAILEVWLRGNTFSLEEIQTLSSRDARLLL
For B1, the binding result in experiment [2] is reported as “binds”.
